PubChem BioAssay AID602196 – INSERM, 2012
Here is a random part of about 23,000 deposited reagents. Of all reagents, 455 (2%) were called active. 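Active includes both protection and sensitisation; some change values fall well beyond the stated -50 to +50 range.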 Reagents against one gene are numbered here. Not all columns of the deposit are shown. Not given: the amount of reagent.

Purpose: 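Modifiers of cisplatin sensitivity in A549 cells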
System: human A549 lung cancer cells
Knock-down reagent: siRNA pair against human genes
Duration: 48 h transfection before cisplatin; time from cisplatin to read-out not stated
Conditions: cisplatin at a dose killing half of control-siRNA cells; exact dose and duration not given
Measured: 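Cisplatin cell death as a shift from the 50% death seen with control siRNA; siRNAs toxic or growth-blocking alone scored 0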
Reading the numbers: two-siRNA summed score (-2 to +2): higher = both siRNAs protect from cisplatin killing; -2 means both sensitise; mean protection from cisplatin (shift in death): higher = protection from cisplatin killing
Call rule: 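Each siRNA scores 0 if harmful alone by LDH or WST-1, otherwise +1 if it reduces and -1 if it increases cisplatin killing; a gene is active when both siRNAs agree (sum +2 or -2)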
Calls: active = both siRNAs shift cisplatin killing the same way; inactive = no consistent shift, or siRNA harmful alone

gene	reagent no.	two-siRNA summed score (-2 to +2)	mean protection from cisplatin (shift in death) (%)	Outcome
ZDHHC23 (GeneID 254887)	1	-1	-5.7	inactive
LOC441867	1	0	24	inactive
ISM2 (GeneID 145501)	1	0	3.1	inactive
IFIT1 (GeneID 3434)	1	0	-1.9	inactive
UPF2 (GeneID 26019)	1	0	6.2	inactive
ZNF350 (GeneID 59348)	1	0	0.8	inactive
LOC389442	1	0	1.9	inactive
FLJ40194 (GeneID 124871)	1	0	4.3	inactive
FAM76A (GeneID 199870)	1	1	9.4	inactive
RHOT1 (GeneID 55288)	1	1	12.1	inactive
HAX1 (GeneID 10456)	1	0	4.8	inactive
HAX1 (GeneID 10456)	2	1	14.9	inactive
METTL18 (GeneID 92342)	1	0	-2.9	inactive
LOC441330	1	0	3.6	inactive
PCNX1 (GeneID 22990)	1	0	-3.1	inactive
LOC400920	1	0	0.3	inactive
DEF6 (GeneID 50619)	1	0	-7	inactive
A1BG (GeneID 1)	1	0	-18.2	inactive
RBMS2 (GeneID 5939)	1	-1	-16	inactive
MIR570HG (GeneID 440993)	1	1	14.7	inactive
TRIM51G (GeneID 120824)	1	0	-8.4	inactive
RXRA (GeneID 6256)	1	-1	-3.2	inactive
TRAPPC4 (GeneID 51399)	1	-1	-16.1	inactive
ZNF804B (GeneID 219578)	1	0	1.6	inactive
RHOU (GeneID 58480)	1	0	1.9	inactive
RALGAPB (GeneID 57148)	1	0	-14	inactive
HBP1 (GeneID 26959)	1	1	11.3	inactive
DMTN (GeneID 2039)	1	0	1.5	inactive
C2orf42 (GeneID 54980)	1	0	-11.2	inactive
ATP1B2 (GeneID 482)	1	0	-0.9	inactive
ZBTB33 (GeneID 10009)	1	0	0.3	inactive
RGS6 (GeneID 9628)	1	-1	-11.6	inactive
TMEM126B (GeneID 55863)	1	0	-0.1	inactive
NPY2R (GeneID 4887)	1	0	16.1	inactive
NBN (GeneID 4683)	1	0	12.7	inactive
LOC285435	1	1	9.9	inactive
RHOA (GeneID 387)	1	0	2.1	inactive
ALG11 (GeneID 440138)	1	1	24.1	inactive
LINC02910 (GeneID 284756)	1	0	5.9	inactive
HSP90AA1 (GeneID 3320)	1	-1	-13.8	inactive
FLJ46365 (retired record) (GeneID 401459)	1	0	-2.3	inactive
KCTD20 (GeneID 222658)	1	-1	-15.3	inactive
CDS1 (GeneID 1040)	1	0	10.6	inactive
MEX3B (GeneID 84206)	1	0	-1.1	inactive
INTS6 (GeneID 26512)	1	0	-28.4	inactive
LOC442093	1	0	5.3	inactive
NUCLEOLIN (GeneID 4691)	1	0	5.4	inactive
LSM2 (GeneID 57819)	1	0	-8.6	inactive
LINC02880 (GeneID 285759)	1	0	5	inactive
SHPK (GeneID 23729)	1	0	-1.8	inactive
AEN (GeneID 64782)	1	0	-2.6	inactive
LOC391258	1	0	4.8	inactive
LOC145842	1	0	7.6	inactive
CHMP7 (GeneID 91782)	1	1	12.7	inactive
LOC389271	1	1	20.5	inactive
NME1 (GeneID 4830)	1	0	8	inactive
LOC401845	1	0	3	inactive
TOPBP1 (GeneID 11073)	1	0	11.2	inactive
ZP2 (GeneID 7783)	1	0	-2.7	inactive
SMIM29 (GeneID 221491)	1	1	9.8	inactive
PUS3 (GeneID 83480)	1	0	8.1	inactive
PRSS36 (GeneID 146547)	1	0	-1	inactive
RS1 (GeneID 6247)	1	1	9.5	inactive
LOC389628	1	0	16.2	inactive
CDC37 (GeneID 11140)	1	0	3.2	inactive
FAM53C (GeneID 51307)	1	0	5.7	inactive
MCOLN2 (GeneID 255231)	1	1	4.5	inactive
ATAD1 (GeneID 84896)	1	0	6.1	inactive
TSEN15 (GeneID 116461)	1	0	4.9	inactive
LOC400047	1	0	5.9	inactive
DNAJC5G (GeneID 285126)	1	0	5.3	inactive
RAB3D (GeneID 9545)	1	0	2.9	inactive
PRXL2C (GeneID 195827)	1	0	3.3	inactive

In a second layout: results already given
DEF6 (GeneID 50619) → two-siRNA summed score (-2 to +2) = 0; mean protection from cisplatin (shift in death) (%) = -7; Outcome = inactive
A1BG (GeneID 1) → two-siRNA summed score (-2 to +2) = 0; mean protection from cisplatin (shift in death) (%) = -18.2; Outcome = inactive
RBMS2 (GeneID 5939) → two-siRNA summed score (-2 to +2) = -1; mean protection from cisplatin (shift in death) (%) = -16; Outcome = inactive
MIR570HG (GeneID 440993) → two-siRNA summed score (-2 to +2) = 1; mean protection from cisplatin (shift in death) (%) = 14.7; Outcome = inactive
TRIM51G (GeneID 120824) → two-siRNA summed score (-2 to +2) = 0; mean protection from cisplatin (shift in death) (%) = -8.4; Outcome = inactive
RXRA (GeneID 6256) → two-siRNA summed score (-2 to +2) = -1; mean protection from cisplatin (shift in death) (%) = -3.2; Outcome = inactive
TRAPPC4 (GeneID 51399) → two-siRNA summed score (-2 to +2) = -1; mean protection from cisplatin (shift in death) (%) = -16.1; Outcome = inactive
